Source: US20060292157A1
Results are given in words; binding and its absence hold for the method and conditions named. Binding seen in cells or lysates may run through a third protein. Some entries that bind do so weakly or less than the wild type. Tags and fused reporters may be left off the sequences shown. Each block holds one binder with its values, some of them ahead of it.

Protein sequences, listed by entry. Tags and fused reporters are not part of them. Residues count along the entry.
UniProt P11021, residues 19-654: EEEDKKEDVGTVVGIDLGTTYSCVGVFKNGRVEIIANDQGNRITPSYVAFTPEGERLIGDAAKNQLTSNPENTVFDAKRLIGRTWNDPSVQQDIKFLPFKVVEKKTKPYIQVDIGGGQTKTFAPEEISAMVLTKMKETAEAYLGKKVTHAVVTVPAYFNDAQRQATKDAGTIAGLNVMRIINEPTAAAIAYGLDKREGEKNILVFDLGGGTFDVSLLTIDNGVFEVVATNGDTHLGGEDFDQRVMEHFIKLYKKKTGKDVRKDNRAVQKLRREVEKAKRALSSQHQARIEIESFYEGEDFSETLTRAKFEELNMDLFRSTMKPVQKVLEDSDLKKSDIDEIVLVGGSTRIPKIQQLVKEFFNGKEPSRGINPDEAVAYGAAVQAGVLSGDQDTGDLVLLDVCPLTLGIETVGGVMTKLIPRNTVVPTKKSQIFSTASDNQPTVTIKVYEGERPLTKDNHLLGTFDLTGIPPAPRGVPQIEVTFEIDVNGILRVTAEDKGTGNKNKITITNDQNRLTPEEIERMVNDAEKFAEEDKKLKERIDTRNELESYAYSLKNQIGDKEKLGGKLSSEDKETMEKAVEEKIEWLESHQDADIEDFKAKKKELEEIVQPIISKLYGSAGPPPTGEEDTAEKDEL

Legend:
[1] = biological target: BiP/GRP78 (endogenous) (human (endogenous in human HeLa cells)) (UniProt P11021); assay: co-IP with BiP/GRP78 antibodies, blot with Flag antibodies; wild type against C/F mutants; HeLa and P69 cells
Myc-tagged BiP/GRP78 [2] = biological target: Myc-tagged BiP/GRP78 (UniProt P11021); assay: co-IP with 9E10 Myc antibodies, blot with Flag antibody M2; also seen with polyclonal BiP/GRP78 antibody and in the reverse direction (Flag IP, 9E10 blot); HeLa cells
Myc-tagged BiP/GRP78 [3] = biological target: Myc-tagged BiP/GRP78 (UniProt P11021); assay: co-IP with BiP/GRP78 polyclonal antibodies, blot with Flag-M2 antibodies, cotransfected HeLa cells (FIG. 11B)
Myc-tagged BiP/GRP78 [4] = biological target: Myc-tagged BiP/GRP78 (UniProt P11021); assay: co-IP with 9E10 Myc antibodies; also in the reverse direction (Flag IP, 9E10 blot); HeLa cells
Myc-tagged BiP/GRP78 [5] = biological target: Myc-tagged BiP/GRP78 (UniProt P11021); assay: discussion of the co-IP results
Myc-tagged BiP/GRP78 [6] = biological target: Myc-tagged BiP/GRP78 (UniProt P11021); assay: co-IP with BiP/GRP78 polyclonal antibodies, blot with Flag-M2 antibodies (FIG. 11C)

B2: Flag-tagged M2 (amino acids 63-206 of MDA-7/IL-24, pCMV3xFlag) (protein, not shown: small tags and cut ends)
chain: GVVPQKLWEAFWAVKDTMQAQDNITSARLLQQEVLQNVSDAESCYLVHTLLEFYLKTVFKNYHNRTVEVRTLKSFSTLANNFVLIVSQLQPSQENEMFSIRDSAHRRFLLFRRAFKQLDVEAALTKALGEVDILLTWMQKFYKL
binding (Myc-tagged BiP/GRP78 [4]): binds | binding (Myc-tagged BiP/GRP78 [5]): binds | binding (Myc-tagged BiP/GRP78 [6]): binds

B3: Flag-tagged M3 (amino acids 80-206 of MDA-7/IL-24, pCMV3xFlag) (protein, not shown: small tags and cut ends)
chain: QAQDNITSARLLQQEVLQNVSDAESCYLVHTLLEFYLKTVFKNYHNRTVEVRTLKSFSTLANNFVLIVSQLQPSQENEMFSIRDSAHRRFLLFRRAFKQLDVEAALTKALGEVDILLTWMQKFYKL
binding (Myc-tagged BiP/GRP78 [4]): binds | binding (Myc-tagged BiP/GRP78 [5]): binds | binding (Myc-tagged BiP/GRP78 [6]): binds

B5: Flag-tagged M1 (amino acids 48-206 of MDA-7/IL-24, pCMV3xFlag) (protein, not shown: small tags and cut ends)
chain: GAQGQEFHFGPCQVKGVVPQKLWEAFWAVKDTMQAQDNITSARLLQQEVLQNVSDAESCYLVHTLLEFYLKTVFKNYHNRTVEVRTLKSFSTLANNFVLIVSQLQPSQENEMFSIRDSAHRRFLLFRRAFKQLDVEAALTKALGEVDILLTWMQKFYKL
binding (Myc-tagged BiP/GRP78 [4]): binds | binding (Myc-tagged BiP/GRP78 [6]): binds

The next lines start with the values.

binding [1]: binds | binding (Myc-tagged BiP/GRP78 [2]): binds | binding (Myc-tagged BiP/GRP78 [3]): binds
B1: Flag-tagged MDA-7/IL-24 (full-length, pCMV3xFlag) (ligand, not shown: small tags and cut ends)
chain: QEFHFGPCQVKGVVPQKLWEAFWAVKDTMQAQDNITSARLLQQEVLQNVSDAESCYLVHTLLEFYLKTVFKNYHNRTVEVRTLKSFSTLANNFVLIVSQLQPSQENEMFSIRDSAHRRFLLFRRAFKQLDVEAALTKALGEVDILLTWMQKFYKL

binding (Myc-tagged BiP/GRP78 [2]): binds | binding (Myc-tagged BiP/GRP78 [3]): binds
B4: Flag-tagged M4 (amino acids 104-206 of MDA-7/IL-24, pCMV3xFlag) (protein, not shown: small tags and cut ends)
chain: ESCYLVHTLLEFYLKTVFKNYHNRTVEVRTLKSFSTLANNFVLIVSQLQPSQENEMFSIRDSAHRRFLLFRRAFKQLDVEAALTKALGEVDILLTWMQKFYKL
